This is an account of results in doi:10.1101/2020.03.28.013953.

For at least one entry, the source does not settle the construct or the ends of the probe. Weaker means in comparison with the reference protein, sequence or condition of that experiment. Tags and fusion partners may be left off the protein sequences shown.

Data set [1] addresses T1, ParB2 (Deinococcus radiodurans R1 (ATCC13939)) (UniProt Q9RZE7).
T1 sequence (looked up, limits assumed): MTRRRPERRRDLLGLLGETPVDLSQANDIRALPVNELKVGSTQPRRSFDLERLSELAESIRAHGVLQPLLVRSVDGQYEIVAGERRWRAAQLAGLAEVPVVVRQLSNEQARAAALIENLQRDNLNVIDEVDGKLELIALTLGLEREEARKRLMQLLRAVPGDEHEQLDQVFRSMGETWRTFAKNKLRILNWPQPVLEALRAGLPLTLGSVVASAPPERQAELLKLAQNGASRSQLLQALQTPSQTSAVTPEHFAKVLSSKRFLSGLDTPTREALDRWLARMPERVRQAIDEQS
As to the kind of experiment: EMSA. The conditions noted are these: 5 mM MgSO4.

Data set [2] addresses T2, ParB3 (Deinococcus radiodurans R1 (ATCC13939)) (UniProt Q9RZV8).
T2 sequence (looked up, limits assumed): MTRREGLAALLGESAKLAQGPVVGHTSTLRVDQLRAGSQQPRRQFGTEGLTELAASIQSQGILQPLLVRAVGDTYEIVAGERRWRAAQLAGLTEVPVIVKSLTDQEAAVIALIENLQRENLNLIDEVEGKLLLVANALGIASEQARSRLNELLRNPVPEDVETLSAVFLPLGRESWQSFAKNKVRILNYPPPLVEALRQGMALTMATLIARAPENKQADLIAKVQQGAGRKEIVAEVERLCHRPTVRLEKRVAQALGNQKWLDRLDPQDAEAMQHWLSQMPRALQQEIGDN
As to the kind of experiment: EMSA. Particulars: 5 mM MgSO4.

On to “CTCCACAAAGTGCCACAGGTAATTCCACAAAGTGCCACAGGC (double strand) [cisII 2 repeats]”, for which, in data set [1], the binding result is on record as “binds more weakly”.
Consider “ACGCAAAGGTGTCGCTATTTTGACCCCAAATCCCGCAAAGGTGTCGCTAT (double strand) [cisMP 2 repeats]”, for which the binding result in data set [2] is “binds more weakly”.
